# Measured values as given in paper PMC9457997, “2-(Nitroaryl)-5-Substituted-1,3,4-Thiadiazole Derivatives with Antiprotozoal Activities: In Vitro and In Vivo Study” (Molecules, 2022).
# Tests used:
# [1] = tested on: T. cruzi, strain Tulahuen C4 amastigotes; experiment: In vitro activity against T. cruzi amastigotes; assay type: cell-based; settings: selectivity index
# Protocol: Although all of the compounds had been tested against Leishmania major promastigotes in our previous works, to deeper evaluate the antitrypanosomatid potential of the selected nitroimidazole derivatives, their activity was measured against L. donovani axenic amastigotes and T. cruzi amastigotes (Table 2). Miltefosine and benznidazole were used as reference drugs. Compounds 18a and 18g were also tested against L. donovani intracellular amastigotes in peritoneal murine macrophages in a further assay. […]. In vitro activity against the protozoan parasites T. b. rhodesiense, T.cruzi, L. donovani and cytotoxicity assessment against L6 cells were determined as reported previously. The following strains, parasite forms, and positive controls were used: T. b. rhodesiense STIB 900 bloodstream forms, melarsoprol (received from WHO, Arsobal Sanofi); T.cruzi Tulahuen C2C4 intracellular amastigotes, benznidazole (received from DNDi synthesized by Epichem Pty Ltd., Murdoch, Australia); L. donovani MHOM-ET-67/L82 axenically grown amastigotes and intracellular amastigotes, miltefosine (Sigma M5571). L6 rat skeletal myoblasts (ATCC CRL-1458), podophyllotoxin (Sigma P4405).
# [2] = tested on: L. donovani, strain MHOM-ET-67/L82 axenically grown amastigotes; experiment: In vitro activity against L. donovani axenic amastigotes; assay type: cell-based; settings: selectivity index
# Protocol: Miltefosine and benznidazole were used as reference drugs. […] In vitro activity against the protozoan parasites T. b. rhodesiense, T.cruzi, L. donovani and cytotoxicity assessment against L6 cells were determined as reported previously. The following strains, parasite forms, and positive controls were used: T. b. rhodesiense STIB 900 bloodstream forms, melarsoprol (received from WHO, Arsobal Sanofi); T.cruzi Tulahuen C2C4 intracellular amastigotes, benznidazole (received from DNDi synthesized by Epichem Pty Ltd., Murdoch, Australia); L. donovani MHOM-ET-67/L82 axenically grown amastigotes and intracellular amastigotes, miltefosine (Sigma M5571).
compound,measurement,setting,value
Cn1c([N+](=O)[O-])cnc1-c1nnc(N2CCCCC2)s1 [Compound 18a],SI (IC50 in L6 cells/IC50 in T. cruzi),[1],>342
CC(=O)N1CCN(c2nnc(-c3ncc([N+](=O)[O-])n3C)s2)CC1 [Compound 18f],SI (IC50 in L6 cells/IC50 in T. cruzi),[1],>571
Cn1c([N+](=O)[O-])cnc1-c1nnc(N2CCNCC2)s1 [Compound 18c],SI (IC50 in L6 cells/IC50 in T. cruzi),[1],1123
same,SI (IC50 in L6 cells/IC50 in L. donovani axenic amastigotes),[2],43
Cn1c([N+](=O)[O-])cnc1-c1nnc(N2CCOCC2)s1 [Compound 18b],SI (IC50 in L6 cells/IC50 in T. cruzi),[1],903
same,SI (IC50 in L6 cells/IC50 in L. donovani axenic amastigotes),[2],597
